PubChem BioAssay AID1259308 – NCATS, 2017
Purpose: 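Knock-downs that increase output of a recombinant reporter protein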 (primary screen). Cell system: human HEK293 embryonic kidney cells stably expressing firefly luciferase (HEK-CMV-Luc2-Hygro). Reagent: single siRNA against human genes, 0.8 pmol siRNA per well. Time to read-out: 72 h. Detection: 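Luciferase light (ONE-Glo) measured on one replicate plate set and viability (CellTiter-Glo) on the other, scaled to a negative control siRNA, with robust z-scores and luciferase per cell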. Reading the numbers: total luciferase, z-score and total luciferase, % of control: higher = more reporter protein produced; luciferase per cell, z-score: higher = more reporter output per viable cell; viable cells, % of control: higher = more viable cells. Call rule: 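An siRNA counts as active if its total luciferase robust z-score exceeds 3; genes with two or more such siRNAs out of three were retested with fresh siRNAs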. Calls: active = raised luciferase; inactive = no rise.
Shown is an unselected part of about 59,000 reagents tested. In the full data, about 1,510 (2.6%) got an active call. 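Calls use total luciferase alone and ignore viability, so some active siRNAs may act by altering cell number.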 Unmarked entries are inactive. Reagents against one gene are numbered here. Reagent sequences are not shown.

target	reagent	total luciferase, z-score	total luciferase, % of control	luciferase per cell, z-score	viable cells, % of control
MIGA1 (mitoguardin 1)	1	0.506	91.9	0.822	82.7
MIGA1 (mitoguardin 1)	2	1.85	119	0.928	104
MIGA1 (mitoguardin 1)	3	2.83	138	2.09	89.2
C7orf25 (chromosome 7 open reading frame 25)	1	-1.72	47.7	-1.17	72.5
C7orf25 (chromosome 7 open reading frame 25)	2	1.17	105	1.23	85
C7orf25 (chromosome 7 open reading frame 25)	3	2.41	130	1.96	86.6
ASCL5 (achaete-scute family bHLH transcription factor 5)	1	0.0521	82.9	0.299	85.6
ASCL5 (achaete-scute family bHLH transcription factor 5)	2	0.82	98.2	0.0429	108
ASCL5 (achaete-scute family bHLH transcription factor 5)	3	0.0702	83.3	0.369	84.4
ASCL5 (achaete-scute family bHLH transcription factor 5)	4	0.121	84.3	-0.257	101
ASCL5 (achaete-scute family bHLH transcription factor 5)	5	-1.89	44.2	0.0925	48.2
ASCL5 (achaete-scute family bHLH transcription factor 5)	6	-0.357	74.8	1.28	59.7
HIF1A (hypoxia inducible factor 1 subunit alpha)	1	1.18	105	0.77	96
HIF1A (hypoxia inducible factor 1 subunit alpha)	2	-0.622	69.5	-0.781	95.4
HIF1A (hypoxia inducible factor 1 subunit alpha)	3	-0.268	76.6	-0.457	96.5
FERRY3 (FERRY endosomal RAB5 effector complex subunit 3)	1	0.175	85.4	0.284	88.5
FERRY3 (FERRY endosomal RAB5 effector complex subunit 3)	2	-0.349	74.9	-0.65	99.4
FERRY3 (FERRY endosomal RAB5 effector complex subunit 3)	3	0.497	91.8	0.311	94.5
SEMG2 (semenogelin 2)	1	1.74	117	2.23	72.4
SEMG2 (semenogelin 2)	2	0.206	86	1.22	69.7
SEMG2 (semenogelin 2)	3	0.868	99.1	0.499	97.1
AIF1 (allograft inflammatory factor 1)	1	-1.3	56	-1.38	90
AIF1 (allograft inflammatory factor 1)	2	-0.111	79.7	-0.734	108
AIF1 (allograft inflammatory factor 1)	3	-2	42	-1.79	75.1
